# Test results as given in publication doi:10.1101/798603.
# Sequences of proteins named here, by UniProt entry; tags and fusion partners are left off.
# UniProt Q08920: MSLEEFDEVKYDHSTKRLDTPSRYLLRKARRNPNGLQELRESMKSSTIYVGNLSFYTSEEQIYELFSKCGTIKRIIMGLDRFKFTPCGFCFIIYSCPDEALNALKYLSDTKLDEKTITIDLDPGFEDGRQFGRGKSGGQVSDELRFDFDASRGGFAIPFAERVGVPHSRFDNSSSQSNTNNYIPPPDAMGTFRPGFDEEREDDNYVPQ
# Positions count from the first letter of the chain named. Results are given in words; binding and its absence hold for the method and conditions named. In cells and extracts the contact can be indirect. These calls come from enrichment with a bait or labelling near it, and not all partners need be listed. For some of these results: A no says only that the protein was not detected with the bait. For some of these results: Where a sequence is shown, tags or fusion partners need not be part of it.
# T1: Rpb4 E19-21Q, TAP-tagged (S. cerevisiae) (UniProt P20433)
# T1 sequence: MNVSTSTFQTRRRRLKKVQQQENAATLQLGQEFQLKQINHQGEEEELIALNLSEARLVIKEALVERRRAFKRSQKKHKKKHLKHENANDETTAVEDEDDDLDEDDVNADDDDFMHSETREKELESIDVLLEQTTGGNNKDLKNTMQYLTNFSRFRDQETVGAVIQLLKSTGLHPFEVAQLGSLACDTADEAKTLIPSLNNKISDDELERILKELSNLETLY
# T2: Rpb4-TAP (S. cerevisiae) (UniProt P20433)
# T2 sequence: T1 sequence with Q19E, Q20E, Q21E
# T3: Rpb4 E19-22Q, TAP-tagged (S. cerevisiae) (UniProt P20433)
# T3 sequence: T1 sequence with E22Q
# T4: Rpb4 E19-22D, TAP-tagged (S. cerevisiae) (UniProt P20433)
# T4 sequence: T1 sequence with Q19D, Q20D, Q21D, E22D
# B1: Cet1 (enzyme, UniProt O13297 1-549)
# chain: MSYTDNPPQTKRALSLDDLVNHDENEKVKLQKLSEAANGSRPFAENLESDINQTETGQAAPIDNYKESTGHGSHSQKPKSRKSSNDDEETDTDDEMGASGEINFDSEMDFDYDKQHRNLLSNGSPPMNDGSDANAKLEKPSDDSIHQNSKSDEEQRIPKQGNEGNIASNYITQVPLQKQKQTEKKIAGNAVGSVVKKEEEANAAVDNIFEEKATLQSKKNNIKRDLEVLNEISASSKPSKYRNVPIWAQKWKPTIKALQSINVKDLKIDPSFLNIIPDDDLTKSVQDWVYATIYSIAPELRSFIELEMKFGVIIDAKGPDRVNPPVSSQCVFTELDAHLTPNIDASLFKELSKYIRGISEVTENTGKFSIIESQTRDSVYRVGLSTQRPRFLRMSTDIKTGRVGQFIEKRHVAQLLLYSPKDSYDVKISLNLELPVPDNDPPEKYKSQSPISERTKDRVSYIHNDSCTRIDITKVENHNQNSKSRQSETTHEVELEINTPALLNAFDNITNDSKEYASLIRTFLNNGTIIRRKLSSLSYEIFEGSKKVM
# B2: Nab3 (protein, UniProt P38996 1-802)
# chain: MSDENHNSDVQDIPSPELSVDSNSNENELMNNSSADDGIEFDAPEEEREAEREEENEEQHELEDVNDEEEEDKEEKGEENGEVINTEEEEEEEHQQKGGNDDDDDDNEEEEEEEEDDDDDDDDDDDDEEEEEEEEEEGNDNSSVGSDSAAEDGEDEEDKKDKTKDKEVELRRETLEKEQKDVDEAIKKITREENDNTHFPTNMENVNYDLLQKQVKYIMDSNMLNLPQFQHLPQEEKMSAILAMLNSNSDTALSVPPHDSTISTTASASATSGARSNDQRKPPLSDAQRRMRFPRADLSKPITEEEHDRYAAYLHGENKITEMHNIPPKSRLFIGNLPLKNVSKEDLFRIFSPYGHIMQINIKNAFGFIQFDNPQSVRDAIECESQEMNFGKKLILEVSSSNARPQFDHGDHGTNSSSTFISSAKRPFQTESGDMYNDDNGAGYKKSRRHTVSCNIFVKRTADRTYAIEVFNRFRDGTGLETDMIFLKPRMELGKLINDAAYNGVWGVVLVNKTHNVDVQTFYKGSQGETKFDEYISISADDAVAIFNNIKNNRNNSRPTDYRAMSHQQNIYGAPPLPVPNGPAVGPPPQTNYYQGYSMPPPQQQQQQPYGNYGMPPPSHDQGYGSQPPIPMNQSYGRYQTSIPPPPPQQQIPQGYGRYQAGPPPQPPSQTPMDQQQLLSAIQNLPPNVVSNLLSMAQQQQQQPHAQQQLVGLIQSMQGQAPQQQQQQLGGYSSMNSSSPPPMSTNYNGQNISAKPSAPPMSHQPPPPQQQQQQQQQQQQQQQQPAGNNVQSLLDSLAKLQK
# B3: Rrp46 (protein, UniProt P53256 1-223)
# chain: MSVQAEIGILDHVDGSSEFVSQDTKVICSVTGPIEPKARQELPTQLALEIIVRPAKGVATTREKVLEDKLRAVLTPLITRHCYPRQLCQITCQILESGEDEAEFSLRELSCCINAAFLALVDAGIALNSMCASIPIAIIKDTSDIIVDPTAEQLKISLSVHTLALEFVNGGKVVKNVLLLDSNGDFNEDQLFSLLELGEQKCQELVTNIRRIIQDNISPRLVV
# B4: Rtt103 (protein, UniProt Q05543 1-409)
# chain: MPFSSEQFTTKLNTLEDSQESISSASKWLLLQYRDAPKVAEMWKEYMLRPSVNTRRKLLGLYLMNHVVQQAKGQKIIQFQDSFGKVAAEVLGRINQEFPRDLKKKLSRVVNILKERNIFSKQVVNDIERSLKTESSPVEALVLPQKLKDFAKDYEKLVKMHHNVCAMKMRFDKSSDELDPSSSVYEENFKTISKIGNMAKDIINESILKRESGIHKLQSTLDDEKRHLDEEQNMLSEIEFVLSAKDPSRLNKNVDEDNIIPTYEVGDGDDDDDDGDNDDDDDDDDDDKNYDDRSNDSNYGVTNISTTDKKNEVVEKTDSEHKNSTHNPSDNQFGMKRTHDMIGHDDANDIPEKKVHLDSKTSEDGTFNSEDGHYELDIEGHVGAQTDEGVENSGGVSSSIQDLLSKLAN
# B5: Dst1 (TFIIS) (protein, UniProt P07273 1-309)
# chain: MDSKEVLVHVKNLEKNKSNDAAVLEILHVLDKEFVPTEKLLRETKVGVEVNKFKKSTNVEISKLVKKMISSWKDAINKNKRSRQAQQHHQDHAPGNAEDKTTVGESVNGVQQPASSQSDAMKQDKYVSTKPRNSKNDGVDTAIYHHKLRDQVLKALYDVLAKESEHPPQSILHTAKAIESEMNKVNNCDTNEAAYKARYRIIYSNVISKNNPDLKHKIANGDITPEFLATCDAKDLAPAPLKQKIEEIAKQNLYNAQGATIERSVTDRFTCGKCKEKKVSYYQLQTRSADEPLTTFCTCEACGNRWKFS
# B6: Myo5 (protein, UniProt Q04439 1-1219)
# chain: MAILKRGARKKVHQEPAKRSANIKKATFDSSKKKEVGVSDLTLLSKISDEAINENLKKRFLNATIYTYIGHVLISVNPFRDLGIYTDAVMNEYKGKNRLEVPPHVFAIAESMYYNMKSYNENQCVIISGESGAGKTEAAKRIMQYIAAASSTHTESIGKIKDMVLATNPLLESFGCAKTLRNNNSSRHGKYLEIKFNNQFEPCAGNITNYLLEKQRVVSQIKNERNFHIFYQFTKGASDAYRQTFGVQKPEQYVYTAAAGCISAETIDDLQDYQETLKAMRVIGLGQEEQDQIFRMLAAILWIGNVSFIENEEGNAQVRDTSVTDFVAYLLQIDSQLLIKSLVERIMETNHGMKRGSVYHVPLNIVQADAVRDALAKAIYNNLFDWIVSRVNKSLQAFPGAEKSIGILDIYGFEIFEHNSFEQICINYVNEKLQQIFIQLTLKSEQETYEREKIQWTPIKYFDNKVVCDLIEARRPPGIFAAMNDSVATAHADSNAADQAFAQRLNLFTTNPHFDLRSNKFVIKHYAGDVTYDIDGITDKNKDQLQKDLVELIGTTTNTFLATIFPDTVDRESKRRPPTAGDKIIKSANDLVETLSKAQPSYIRTIKPNETKSPNDYDDRQVLHQIKYLGLQENVRIRRAGFAYRQVFEKFVERFYLLSPHCSYAGDYTWQGDTLDAVKYILQDSSIPQQEYQLGVTSVFIKTPETLFALEHMRDRYWHNMAARIQRAWRRFLQRRIDAATKIQRTIRERKEGNKYEKLRDYGTKVLGGRKERRSMSLLGYRAFMGDYLSCNESKSKGAYIKRQVSIKEKVIFSIHGEALHTKFGRSAQRLKKTFLLTPTTLYIVGQTLVQNAMTYTQDYKIDVRNIQAVSLTNLQDDWVAIKLASSGQPDPLINTYFKTELITHLKRLNDKIQIKIGSAIEYQKKPGKLHSVKCQINESAPKYGDIYKSSTISVRRGNPPNSQVHKKPRKKSSISSGYHASSSQATRRPVSIAAAQHVPTAPASRHSKKPAPPPPGMQNKAATRRSVPNPASTLTASQSNARPSPPTAATRATPAATPAAAAMGSGRQANIPPPPPPPPPSSKPKEPMFEAAYDFPGSGSPSELPLKKGDVIYITREEPSGWSLGKLLDGSKEGWVPTAYMKPHSGNNNIPTPPQNRDVPKPVLNSVQHDNTSANVIPAAAQASLGDGLANALAARANKMRLESDDEEANEDEEEDDW
# B7: Lsm2 (protein, UniProt P38203 1-95)
# chain: MLFFSFFKTLVDQEVVVELKNDIEIKGTLQSVDQFLNLKLDNISCTDEKKYPHLGSVRNIFIRGSTVRYVYLNKNMVDTNLLQDATRREVMTERK
# How the values were obtained:
# Assay in all cases: affinity purification with mass spectrometry
# [1] = biological target: T1, Rpb4 E19-21Q, TAP-tagged (S. cerevisiae)
# [2] = biological target: T2, Rpb4-TAP (S. cerevisiae)
# [3] = biological target: T3, Rpb4 E19-22Q, TAP-tagged (S. cerevisiae)
# [4] = biological target: T4, Rpb4 E19-22D, TAP-tagged (S. cerevisiae)
Molecule,binding [1],binding [2],binding [3],binding [4]
Cbc2 (from UniProt Q08920 1-208),binds,binds,–,–
B1,–,binds,–,–
B2,–,binds,–,–
B3,–,binds,–,–
B4,binds,binds,binds,binds
B5,–,binds,–,–
B6,–,no binding,binds,–
B7,–,no binding,–,–
